Record: PubChem BioAssay AID1259405 (NCATS, 2018)
This is one part, drawn at random, of about 50,000 reagents. In the full data, about 4,000 (8%) were called active. 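Mouse siRNA library applied to hamster cells; one well for each siRNA.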 Entries without a mark were called inactive. Reagents against one gene are numbered here.

- Purpose: 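Silenced genes that increase secreted GFP made by CHO cells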 (primary screen)
- System: Chinese hamster CHO-K1 ovary cells with stable secreted eGFP expression
- Reagent: single siRNA against mouse genes, 0.8 pmol siRNA per well (2 µl of 400 nM stock)
- Time to read-out: 3 days
- Detection: 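Per-well intracellular GFP measured by laser scanning cytometry, plus viability from ATP luminescence, each relative to plate median of non-targeting control wells, in %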
- Scale: GFP, % of control: higher = more GFP per well, higher productivity; viability (ATP), % of control: higher = more viable cells (more ATP)
- Hit rule: 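Called active when intracellular GFP, relative to negative control, is at or above 120%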

The opening 5 records, ahead of the listing:
{"gene": "Or7e174", "reagent no.": 1, "GFP, % of control": 76.1, "viability (ATP), % of control": 57.4}
{"gene": "Or7e174", "reagent no.": 2, "GFP, % of control": 78.9, "viability (ATP), % of control": 46.5}
{"gene": "Or7e174", "reagent no.": 3, "GFP, % of control": 112, "viability (ATP), % of control": 108}
{"gene": "Dnajb8", "reagent no.": 1, "GFP, % of control": 70.5, "viability (ATP), % of control": 66.4}
{"gene": "Dnajb8", "reagent no.": 2, "GFP, % of control": 97.4, "viability (ATP), % of control": 86.2}

The listing, from the first entry:
{"gene": "Or7e174", "reagent no.": 1, "GFP, % of control": 76.1, "viability (ATP), % of control": 57.4}
{"gene": "Or7e174", "reagent no.": 2, "GFP, % of control": 78.9, "viability (ATP), % of control": 46.5}
{"gene": "Or7e174", "reagent no.": 3, "GFP, % of control": 112, "viability (ATP), % of control": 108}
{"gene": "Dnajb8", "reagent no.": 1, "GFP, % of control": 70.5, "viability (ATP), % of control": 66.4}
{"gene": "Dnajb8", "reagent no.": 2, "GFP, % of control": 97.4, "viability (ATP), % of control": 86.2}
{"gene": "Dnajb8", "reagent no.": 3, "GFP, % of control": 74.7, "viability (ATP), % of control": 128}
{"gene": "Hdac7", "reagent no.": 1, "GFP, % of control": 86.4, "viability (ATP), % of control": 76.7}
{"gene": "Hdac7", "reagent no.": 2, "GFP, % of control": "179 (active)", "viability (ATP), % of control": 104}
{"gene": "Hdac7", "reagent no.": 3, "GFP, % of control": 68.5, "viability (ATP), % of control": 90.5}
{"gene": "Hdac7", "reagent no.": 4, "GFP, % of control": 98.6, "viability (ATP), % of control": 95.3}
{"gene": "Hdac7", "reagent no.": 5, "GFP, % of control": 81.9, "viability (ATP), % of control": 84.2}
{"gene": "Arrb2", "reagent no.": 1, "GFP, % of control": 67.2, "viability (ATP), % of control": 27.6}
{"gene": "Arrb2", "reagent no.": 2, "GFP, % of control": 53.4, "viability (ATP), % of control": 52.9}
{"gene": "Arrb2", "reagent no.": 3, "GFP, % of control": 90.7, "viability (ATP), % of control": 62.1}
{"gene": "Slc3a1", "reagent no.": 1, "GFP, % of control": 95.6, "viability (ATP), % of control": 88.1}
{"gene": "Slc3a1", "reagent no.": 2, "GFP, % of control": 76.4, "viability (ATP), % of control": 72.6}
{"gene": "Slc3a1", "reagent no.": 3, "GFP, % of control": 72.3, "viability (ATP), % of control": 69}
{"gene": "C030006K11Rik", "reagent no.": 1, "GFP, % of control": 68.8, "viability (ATP), % of control": 84.4}
{"gene": "C030006K11Rik", "reagent no.": 2, "GFP, % of control": 94.4, "viability (ATP), % of control": 94.4}
{"gene": "C030006K11Rik", "reagent no.": 3, "GFP, % of control": "143 (active)", "viability (ATP), % of control": 142}
{"gene": "Cwc22", "reagent no.": 1, "GFP, % of control": 85.2, "viability (ATP), % of control": 60.1}
{"gene": "Cwc22", "reagent no.": 2, "GFP, % of control": 82.9, "viability (ATP), % of control": 67}
{"gene": "Cwc22", "reagent no.": 3, "GFP, % of control": 107, "viability (ATP), % of control": 53.7}
{"gene": "Slc35d3", "reagent no.": 1, "GFP, % of control": 62.5, "viability (ATP), % of control": 49.7}
{"gene": "Slc35d3", "reagent no.": 2, "GFP, % of control": 104, "viability (ATP), % of control": 69.6}
{"gene": "Slc35d3", "reagent no.": 3, "GFP, % of control": 47.7, "viability (ATP), % of control": 49.8}
{"gene": "2900092C05Rik", "reagent no.": 1, "GFP, % of control": 86, "viability (ATP), % of control": 83.7}
{"gene": "2900092C05Rik", "reagent no.": 2, "GFP, % of control": 102, "viability (ATP), % of control": 68.7}
{"gene": "2900092C05Rik", "reagent no.": 3, "GFP, % of control": 63.1, "viability (ATP), % of control": 49.9}
{"gene": "2310002L09Rik", "reagent no.": 1, "GFP, % of control": 83, "viability (ATP), % of control": 103}
{"gene": "2310002L09Rik", "reagent no.": 2, "GFP, % of control": 30.6, "viability (ATP), % of control": 33.5}
{"gene": "2310002L09Rik", "reagent no.": 3, "GFP, % of control": 69, "viability (ATP), % of control": 66.7}
{"gene": "Prep", "reagent no.": 1, "GFP, % of control": 105, "viability (ATP), % of control": 90.7}
{"gene": "Prep", "reagent no.": 2, "GFP, % of control": 63.1, "viability (ATP), % of control": 55.2}
{"gene": "Prep", "reagent no.": 3, "GFP, % of control": 80.1, "viability (ATP), % of control": 59.5}
{"gene": "Or2a5", "reagent no.": 1, "GFP, % of control": 72.3, "viability (ATP), % of control": 48.7}
{"gene": "Or2a5", "reagent no.": 2, "GFP, % of control": 93.3, "viability (ATP), % of control": 80.3}
{"gene": "Or2a5", "reagent no.": 3, "GFP, % of control": 87.2, "viability (ATP), % of control": 77.3}
{"gene": "Plekha5", "reagent no.": 1, "GFP, % of control": 62.4, "viability (ATP), % of control": 65.4}
{"gene": "Plekha5", "reagent no.": 2, "GFP, % of control": 85.4, "viability (ATP), % of control": 79}
{"gene": "Plekha5", "reagent no.": 3, "GFP, % of control": 116, "viability (ATP), % of control": 80.9}
